# Reference: the supplement of paper PMC10338343
# ± gives the standard deviation. Only a part is listed here, and it is no random draw. The uncertainty is large for many entries.
# Test system: MILI (PIWIL2) piRISC loaded with piRNA #1 (26 nt)
# Assay: pre-steady-state target cleavage rate (min^-1); MIWI and MILI are mouse PIWI proteins and EfPiwi is from a freshwater sponge; tags in brackets are library labels; higher = faster piRNA-guided slicing of the target
# Conditions: guide: piRNA #1 5'p-UGAGGUAGUAGGUUGUAUAGUAUCCA; auxiliary factor: 500 nM mouse GTSF1
# How it was run: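 Cleave-'n-Seq used a transcribed, DNA-blocked target RNA library at 0.1 nM and active affinity-purified piRISC with one synthetic guide at 1 nM, with or without 500 nM GTSF1 partner protein, in HEPES–potassium acetate buffer at 33 °C for 0–8 or 0–960 min. Uncleaved targets were sequenced and normalised to depth and to weakly complementary targets, and three trials were pooled with k3 capped at 0.0001 min^-1. The pre-steady-state cleavage rate was estimated by a burst-and-steady-state fit.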
row,Sequence,pre-steady-state target cleavage rate
1,GGAGACCUAUGUAUACAACCUACUACCUCA [g2:g19:cont:t1A],0.0765 ± 0.012
2,GGAGAGGAUACUAUACUACCUACUACCUCA,0.173 ± 0.011
3,GGAGACCUAUGAUAUGAACGUACUACCACA,0.000169 ± 0.029
4,GGAGAGGUUACUUUACAACCUACUACCUCA,0.175 ± 0.01
5,GGAGACCAUACUAUACAACCUACUUCCACA,0.0785 ± 0.018
6,GGAGUGGAUACUAUACAACCUGACUACCUCA,0.00175 ± 0.0037
7,GGAGACCUAUGAUAUGAACCUACUACCUCC [g2:g14:cont:t1C],0.000368 ± 0.0082
8,GGAGACCUAUGAUAUGAACCUACUACCUCU [g2:g14:cont:t1U],0.000352 ± 0.0081
9,GGAGACCUAUGAUAUGAACCAACUACCUGA,0.000171 ± 0.014
10,GGAGACCUAUCUAUACAACCUACUACCUACA,0.0858 ± 0.015
11,GGAGAGGAUACUAUACAUCCUUCUACCUCA,0.0216 ± 0.0041
12,GGAGACGAUACAAUACAUCCUACUACCUCA,0.312 ± 0.016
13,GGAGACCUUACUAUACAACCUUCAACCUCA,0.00437 ± 0.003
14,GGAGACCUAACUAUACAACCAACUACCUCA,0.00232 ± 0.0082
15,GGAGACCUUACUAUACAACCUACUACCCUCA,0.17 ± 0.019
16,GGAGACCUAACUAUACAACCUUCUAGCUCA,0.0014 ± 0.0091

# Numbers 9 through 12, reprinted for reference:
row,Sequence,pre-steady-state target cleavage rate
9,GGAGACCUAUGAUAUGAACCAACUACCUGA,0.000171 ± 0.014
10,GGAGACCUAUCUAUACAACCUACUACCUACA,0.0858 ± 0.015
11,GGAGAGGAUACUAUACAUCCUUCUACCUCA,0.0216 ± 0.0041
12,GGAGACGAUACAAUACAUCCUACUACCUCA,0.312 ± 0.016
